Laboratory results: US20120258920A1
Results are given in words; binding and its absence hold for the method and conditions named. Binding seen in cells or lysates may run through a third protein. Some results given as binding are weak or reduced against the parent protein; the word gives no strength. Tags and fused reporters may be left off the sequences shown.

Target: T1, p63 (human) (UniProt Q9H3D4)
T1 sequence (looked up): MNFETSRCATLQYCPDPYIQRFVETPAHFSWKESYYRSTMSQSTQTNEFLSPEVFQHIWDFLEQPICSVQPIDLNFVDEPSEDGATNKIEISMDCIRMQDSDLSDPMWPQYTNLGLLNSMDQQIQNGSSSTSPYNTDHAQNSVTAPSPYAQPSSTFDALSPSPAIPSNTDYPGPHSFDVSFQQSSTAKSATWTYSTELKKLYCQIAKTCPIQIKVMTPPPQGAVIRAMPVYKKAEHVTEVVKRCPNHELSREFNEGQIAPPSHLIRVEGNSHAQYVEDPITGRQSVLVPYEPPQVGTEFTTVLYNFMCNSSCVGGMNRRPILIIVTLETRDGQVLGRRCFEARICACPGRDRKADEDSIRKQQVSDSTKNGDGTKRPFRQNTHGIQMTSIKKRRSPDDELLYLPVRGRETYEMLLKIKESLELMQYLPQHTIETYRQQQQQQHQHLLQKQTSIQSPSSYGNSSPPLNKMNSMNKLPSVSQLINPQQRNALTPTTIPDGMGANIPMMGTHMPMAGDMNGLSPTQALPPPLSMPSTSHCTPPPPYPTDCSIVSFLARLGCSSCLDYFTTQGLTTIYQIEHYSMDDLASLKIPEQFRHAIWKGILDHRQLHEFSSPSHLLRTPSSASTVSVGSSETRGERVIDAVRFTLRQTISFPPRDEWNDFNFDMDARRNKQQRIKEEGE
Assay: co-immunoprecipitation (data not shown)

| Binder | binding |
| --- | --- |
| AKYCQCAAKVRVTAAM (designed binder, not shown: large carriers; small tags and cut ends) [EGFP-TNV-A3] | binds |
| GPVVPRTQYMSLAFGW (designed binder, not shown: large carriers; small tags and cut ends) [EGFP-TNV-A29] | binds |
| IQITLTGWSARVTTSG (designed binder, not shown: large carriers; small tags and cut ends) [EGFP-TNV-A60] | binds |
| VWAESCDDCGEYWRYV (designed binder, not shown: large carriers; small tags and cut ends) [EGFP-TNV-A79] | binds |
| DVADWESCGEYWCYRV (designed binder, not shown: large carriers; small tags and cut ends) [EGFP-TNV-sA79] | binds |

Target: T2, HA-TAp73α (human) (UniProt O15350)
T2 sequence (looked up): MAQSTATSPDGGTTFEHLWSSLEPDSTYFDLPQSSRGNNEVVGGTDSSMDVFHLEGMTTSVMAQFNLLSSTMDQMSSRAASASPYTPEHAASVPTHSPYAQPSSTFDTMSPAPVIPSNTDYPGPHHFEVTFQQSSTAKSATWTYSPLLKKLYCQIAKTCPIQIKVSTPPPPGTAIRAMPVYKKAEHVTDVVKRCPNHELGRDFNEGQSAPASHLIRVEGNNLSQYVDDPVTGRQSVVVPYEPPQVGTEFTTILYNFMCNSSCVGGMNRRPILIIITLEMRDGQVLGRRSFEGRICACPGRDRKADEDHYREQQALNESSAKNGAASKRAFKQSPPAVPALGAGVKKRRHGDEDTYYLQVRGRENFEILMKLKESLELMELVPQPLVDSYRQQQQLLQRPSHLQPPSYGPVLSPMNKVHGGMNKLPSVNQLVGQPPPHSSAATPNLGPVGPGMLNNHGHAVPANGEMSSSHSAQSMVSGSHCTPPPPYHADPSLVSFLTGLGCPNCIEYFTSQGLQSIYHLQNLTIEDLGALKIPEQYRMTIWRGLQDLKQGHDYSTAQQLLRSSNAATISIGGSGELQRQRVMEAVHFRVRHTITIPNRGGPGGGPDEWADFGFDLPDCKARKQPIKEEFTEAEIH
Assay: co-immunoprecipitation with anti-GFP antibody from co-transfected H1299 cells, Western Blot with anti-HA

| Binder | binding |
| --- | --- |
| AKYCQCAAKVRVTAAM (designed binder, not shown: large carriers; small tags and cut ends) [EGFP-TNV-A3] | binds |
| GPVVPRTQYMSLAFGW (designed binder, not shown: large carriers; small tags and cut ends) [EGFP-TNV-A29] | binds |
| IQITLTGWSARVTTSG (designed binder, not shown: large carriers; small tags and cut ends) [EGFP-TNV-A60] | binds |
| VWAESCDDCGEYWRYV (designed binder, not shown: large carriers; small tags and cut ends) [EGFP-TNV-A79] | binds |
| DVADWESCGEYWCYRV (designed binder, not shown: large carriers; small tags and cut ends) [EGFP-TNV-sA79] | binds |
